Microarray screen: hit calls

Targets (5′ to 3′):
SAM-II: SAM-II riboswitch RNA pseudoknot, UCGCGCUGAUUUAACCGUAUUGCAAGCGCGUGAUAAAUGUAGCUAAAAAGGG. About 200 hits among about 21,000 compounds.
TPP: TPP riboswitch RNA three-way junction, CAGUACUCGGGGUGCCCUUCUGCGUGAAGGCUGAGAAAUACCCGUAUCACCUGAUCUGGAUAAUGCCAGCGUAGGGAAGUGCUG. About 160 hits among about 24,000 compounds.
PreQ1: PreQ1 riboswitch RNA pseudoknot, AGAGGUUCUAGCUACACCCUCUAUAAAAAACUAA. From B. subtilis. About 170 hits among about 24,000 compounds.

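Compounds were printed on reactive glass slides in duplicate spots, a dye-labelled oligonucleotide was laid over them, and the fluorescence left after washing was read. The data file lists only calls. An earlier report of the laboratory on the PreQ1, TPP and SAM-II riboswitches (doi:10.1038/s41467-019-09493-3) used 1 µM RNA for 2 h and required a mean Z-score above 3 (spot signal-to-noise against the whole library), a score well above that on a control array, and duplicate spots agreeing (coefficient of variation under 100); it then also set aside compounds that hit other targets, which this list keeps. The cut-offs behind this list may differ. These are primary screening calls, not affinities; a compound without a hit may have attached poorly or may still bind in solution.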 “active” means called a hit, “inactive” means screened and not called a hit. The compounds are a random part of those screened. A target missing from an entry has no call listed here.

Cc1cccc(NC(c2nnc(-c3ccccc3)o2)c2ccccc2F)c1 (centres unmarked) was scored SAM-II: inactive; TPP: inactive; PreQ1: inactive.
Cc1cc(C)c(NC(=O)C(=O)NCC(C)O)c(C)c1 (centres unmarked) was scored SAM-II: inactive; TPP: inactive; PreQ1: inactive.
COc1cccc(OCC(O)CN2CCN(c3ccccc3)CC2)c1 (centres unmarked) was scored SAM-II: inactive; TPP: inactive; PreQ1: inactive.
Cc1ccc(NC(=O)CC(=O)N2CC[C@@H](O)C2)c(C)c1 was scored SAM-II: inactive; TPP: inactive; PreQ1: inactive.
CCCCOc1ccc(Nc2cc(Cl)ccc2C(=O)O)cn1 was scored SAM-II: inactive; TPP: inactive; PreQ1: inactive.
CCCCCn1cnc2c(=S)nc(N)[nH]c21 was scored SAM-II: inactive; TPP: inactive; PreQ1: inactive.
COc1ccc(CNCc2ccc(F)cc2)cc1 was scored SAM-II: inactive; TPP: inactive; PreQ1: inactive.
OCc1c(F)c(F)c(-n2nc(-c3ccccc3)cc2-c2ccccc2)c(F)c1F was scored SAM-II: inactive; TPP: inactive; PreQ1: inactive.
COC(=O)[C@@H]1[C@H]2C[C@@H]3c4[nH]c5ccccc5c4CCN3C[C@@H]2CC[C@@H]1O was scored SAM-II: inactive; TPP: inactive; PreQ1: inactive.
Cc1cc(-c2ncc(CC(=O)Nc3ccc(-c4cnccn4)cn3)cc2C)ccn1 was scored SAM-II: inactive; TPP: inactive; PreQ1: inactive.
CN(Cc1cnc(N)nc1)C(=O)c1ccc(S(=O)(=O)NC2CCC2)cc1 was scored SAM-II: inactive; TPP: inactive; PreQ1: inactive.
COc1ccc(Cl)cc1Nc1nc2ccccc2c2nnc(C)n12 was scored TPP: inactive; PreQ1: inactive.
O=C(O)/C(Cc1c[nH]nn1)=N\O was scored SAM-II: inactive; TPP: inactive; PreQ1: inactive.
CN(Cc1ccoc1)C(=O)c1cccc(NCc2cccs2)c1 was scored SAM-II: inactive; TPP: inactive; PreQ1: inactive.
O=S(=O)(Nc1nc2ccccc2nc1Nc1ccc(Cl)cc1)c1ccccc1 was scored SAM-II: inactive; TPP: inactive; PreQ1: inactive.
Cc1nn(Cc2ccccc2)c(N)c1-c1ccccc1 was scored SAM-II: inactive; TPP: inactive; PreQ1: inactive.
CCC(O)c1nc2ccccc2n1CCOc1ccc(C)cc1C (centres unmarked) was scored TPP: inactive; PreQ1: inactive.
CCCCNc1cc(C(=O)O)cc(S(N)(=O)=O)c1Oc1ccccc1 was scored SAM-II: inactive; TPP: inactive; PreQ1: inactive.
Cn1c(=O)c2c(-c3ccccc3Cl)n(-c3cccc(N)c3)cc2n(C)c1=O was scored TPP: inactive; PreQ1: inactive.
COCCn1c(C)c(C)c(S(=O)(=O)c2ccccc2)c1N was scored SAM-II: inactive; TPP: inactive; PreQ1: inactive.
O=[N+]([O-])c1cc(C(F)(F)F)ccc1NCCCCNS(=O)(=O)c1ccccc1 was scored SAM-II: inactive; TPP: inactive; PreQ1: inactive.
CCOc1cccc(N2C(=O)CC(NCCc3ccc(S(N)(=O)=O)cc3)C2=O)c1 (centres unmarked) was scored SAM-II: inactive; TPP: inactive; PreQ1: inactive.
Cn1cc(C2=C(c3c4n(c5ccccc35)CCC(CN)C4)C(=O)NC2=O)c2ccccc21 (centres unmarked) was scored SAM-II: inactive; TPP: inactive; PreQ1: inactive.
Cn1c(C2=C(N)N(c3cccc(Cl)c3)CC2=O)nc2ccccc21 was scored TPP: inactive; PreQ1: inactive.

2 of the entries, repeated:

compound	SAM-II	TPP	PreQ1
CCCCOc1ccc(Nc2cc(Cl)ccc2C(=O)O)cn1	inactive	inactive	inactive
Cn1cc(C2=C(c3c4n(c5ccccc35)CCC(CN)C4)C(=O)NC2=O)c2ccccc21 (centres unmarked)	inactive	inactive	inactive

Source: the ROBIN nucleic acid binder screens (doi:10.1002/anie.202211358).